At least one structure is not confirmed: it was looked up by name or label, or the drawing left a doubt.
System: U2OS cells
Test: LC3B immunofluorescence of autophagic vesicles
Format: cell-based, human
Conditions: 50 nM rapamycin concurrently with 25 uM chloroquine, 1 hr
Description: Immunofluorescence and western blot analyses. U2OS cells were seeded at a density of 35,000 cells per well in McCoy's 5A medium supplemented with 10% FBS on number 1.5 coverglass in 24-well tissue culture plates (for immunofluorescence) or 150,000 cells per well on 6-well dishes (for western blot). After 24 h, siRNAs were transfected at a final concentration of 25 nM using 2 μl HiPerfect transfection reagents (Qiagen) per ml medium. Control siRNA was All-star negative control (Qiagen) and PTPRS siRNAs were two unique sequences (SI02759288, SI03056284, Qiagen). […] For western blots, cells were lysed (in 10 mM KPO4, 1 mM EDTA, 10 mM MgCl2, 5 mM EGTA, 50 mM bisglycerophosphate, 0.5% NP40, 0.1% Brij35, 0.1% sodium deoxycholate, 1 mM NaVO4, 5 mM NaF, 2 mM DTT, AEBSF, aprotinin, bestatin hydrochloride, E64, leupeptin, and pepstatin A and 20 μg of total protein was resolved by SDS-PAGE. Membranes were probed with primary antibodies (LC3B, Cell Signaling Technologies; α-tubulin, Sigma) for 16 h at 4° C. followed by secondary antibodies (HRP-linked anti-rabbit or anti-mouse IgG) for 1 h at room temperature. Proteins were detected by enhanced chemiluminescence. For immunofluorescence, cells were fixed with 3.7% formaldehyde, permeabilized with 0.2% Triton-X 100, and blocked with 3% bovine serum albumin (BSA) in PBS. […]

## CO[C@H]1C[C@@H]2CC[C@@H](C)[C@@](O)(O2)C(=O)C(=O)N2CCCC[C@H]2C(=O)O[C@H]([C@H](C)C[C@@H]2CC[C@@H](O)[C@H](OC)C2)CC(=O)[C@H](C)/C=C(\C)[C@@H](O)[C@@H](OC)C(=O)[C@H](C)C[C@H](C)/C=C/C=C/C=C/1C [rapamycin]
  LC3-positive AVs: an even greater abundance of LC3-positive AVs accumulate
